Measured values reported in PubChem BioAssay AID2685 (National Center for Advancing Translational Sciences (NCATS), 2010).
The list shows a part of the results. These are further read-outs of the screen, such as a control signal, another cell line or another target. No call is given for them. The list favours compounds with an active or inconclusive main result. The note in brackets gives the kind of curve behind each potency; many fits are weak.

Experiment: qHTS Assay for Lipid Storage Modulators in Drosophila S3 Cells;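 on cell number change: cells counted by Cell Tracker Red CMTPX staining in the red channel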
Conditions: BODIPY lipid droplet fluorescence, 18-24 h; for cell number change: measured here: cell count max response, cells fed with added oleic acid
Method in brief: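 Drosophila S3 cells loaded with oleic acid (400 uM, as added) and compounds at several concentrations; lipid droplets imaged by 488-nm laser-scanning cytometry, 500–530 nm intensity and object ratio to cell channel. Percent activity normalized to 20 uM Triacsin C.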

[1] = measured here: lipid fluorescence (Fed channel) AC50, cells fed with added oleic acid
[2] = measured here: cell number channel AC50, cells fed with added oleic acid

In the case of `COc1ccc(S(=O)(=O)N2CCN(C(=O)CCNC(=O)c3ccccc3Cl)CC2)cc1`, the cell number change was 26.7% and the AC50 [1] was 16.4 µM [rising, single point].
In the case of `O=C(CSc1ncn[nH]1)Nc1nsc(-c2ccccc2)n1`, the cell number change was -21.4%.
For `NC(=O)CC(NC(=O)c1ccc(Br)cc1)c1ccc(N2CCC(Cc3ccccc3)CC2)c([N+](=O)[O-])c1` (centres undefined), the cell number change was -20.1% and the AC50 [1] was 0.00461 µM [falling, full curve, poor fit].
With `COc1cccc(NC(=O)CN(C)C(=O)c2c(C)nn(Cc3ccc(C)cc3)c2Cl)c1` the cell number change was 88.8% and the AC50 [2] was 13 µM [rising, partial curve].
For `Cc1[nH]c2ccccc2c1C1=NNC(=Nc2ccc(F)cc2)SC1`, the cell number change was -35.1%, the AC50 [2] was 29.1 µM [falling, single point] and the AC50 [1] was 29.1 µM [falling, single point].
For `CCCOc1ccc(/C=N/Nc2ccccc2[N+](=O)[O-])c(OCCC)c1`, the cell number change was -40.5%, the AC50 [2] was 1.84 µM [falling, full curve] and the AC50 [1] was 2.06 µM [falling, full curve].
For `CCOP(=O)(OCC)c1nc(-c2cccc3ccccc23)oc1N1CCCCC1`, the cell number change was -31.7% and the AC50 [1] was 32.6 µM [falling, single point].
In the case of `COc1ccc(C(NC(=O)c2c(F)c(F)c(F)c(F)c2F)c2ccccc2)cc1` (centres undefined), the cell number change was 30.2% and the AC50 [2] was 29.1 µM [rising, single point].
For `C=CCc1ccccc1OCCNCCCOC`, the cell number change was -54.7%, the AC50 [2] was 32.6 µM [falling, single point] and the AC50 [1] was 29.1 µM [falling, single point].
For `Cc1ccc(CSCC(=O)Nc2cc(S(=O)(=O)N3CCOCC3)ccc2OC(C)C)cc1`, the cell number change was 150% and the AC50 [2] was 18.4 µM [rising, partial curve].
In the case of `COc1cc(C(C(=O)NC2CCCCC2)N(Cc2cccs2)C(=O)Cc2c[nH]c3ccccc23)cc(OC)c1OC` (centres undefined), the cell number change was 1.13% and the AC50 [1] was 14.6 µM [rising, single point].
`c1cnc(-c2noc(CN3CCN(C4C5CC6CC(C5)CC4C6)CC3)n2)cn1` (centres undefined) showed a cell number change of 0.119%.
For `CCOC(=O)c1c(NC(=O)CCC(=O)N(CC)CC)sc2c1CC(C)(C)OC2`, the cell number change was -9.71% and the AC50 [1] was 18.4 µM [falling, single point].
For `CN1CCN(CC(=O)N2c3ccccc3C(C)(c3ccc(Cl)cc3)CC2(C)C)CC1` (centres undefined), the cell number change was -7.21% and the AC50 [1] was 0.731 µM [falling, full curve].
For `COc1ccc(Cn2c(=O)[nH]c3cc(C(=O)N4CCN(c5ccccn5)CC4)ccc3c2=O)cc1`, the cell number change was 32.8%, the AC50 [2] was 0.00517 µM [rising, full curve, poor fit] and the AC50 [1] was 29.1 µM [rising, single point].
For `Cc1c(CNCCc2ccc(Cl)cc2)c(C(=O)O)c(C)n1-c1ccccc1`, the cell number change was -31.9% and the AC50 [1] was 0.58 µM [falling, single point].
In the case of `Cc1cc(OCCSc2nnc(-c3cccs3)n2C)ccc1Cl`, the cell number change was -31.2%, the AC50 [2] was 0.461 µM [falling, full curve, poor fit] and the AC50 [1] was 23.1 µM [falling, partial curve, poor fit].
Work on `COc1ccc(S(=O)(=O)NC2CCc3ccccc32)cc1OC` (centres undefined) yielded a cell number change of -15.3%.
Molecule `Cc1ccc(S(=O)(=O)N=Nc2c(O)[nH]c3ccccc23)cc1C` has a cell number change of -1.45%.
In the case of `CCCNC(=O)C(Cc1ccccc1C)NC(=O)c1ccc(C#N)cc1` (centres undefined), the cell number change was -6.26%, the AC50 [2] was 0.411 µM [falling, single point] and the AC50 [1] was 0.517 µM [falling, single point].
With `CCc1ccccc1NC(=O)CN1CCN(C(=O)CN2C(=O)NC3(CCCCC3C)C2=O)CC1` (centres undefined) the cell number change was -31.6%, the AC50 [2] was 14.6 µM [falling, partial curve, poor fit] and the AC50 [1] was 6.51 µM [falling, single point].
For `CCOC(=O)C1=C(CNCc2ccccc2Cl)NC(=O)NC1c1cccc([N+](=O)[O-])c1` (centres undefined), the cell number change was 51.4%, the AC50 [2] was 29.1 µM [rising, single point] and the AC50 [1] was 6.51 µM [falling, single point].
Work on `CCOc1ccc(N2CC(C(=O)NC(C)C)CC2=O)cc1` (centres undefined) yielded a cell number change of -1.44%.
For `NC(=O)c1ccccc1NC(=O)c1ccoc1`, the cell number change was 3.6%, the AC50 [2] was 4.11 µM [rising, single point] and the AC50 [1] was 2.59 µM [rising, single point].
In the case of `Cc1ccc2c(c1)c1c(n2CC(O)CNC(CO)(CO)CO)CCCC1` (centres undefined), the cell number change was -131%, the AC50 [2] was 32.6 µM [falling, partial curve] and the AC50 [1] was 25.9 µM [falling, partial curve].
In the case of `NC(=O)C1(N2CCCCC2)CCN(c2ccc3nnc(-c4ccccc4)n3n2)CC1`, the cell number change was -11.5% and the AC50 [1] was 16.4 µM [falling, partial curve].
With `CC(=O)Nc1ccccc1S(=O)(=O)CC1CC1(Cl)Cl` (centres undefined) the cell number change was 13.5% and the AC50 [1] was 29.1 µM [rising, single point].
